Some compounds share one wording; it may come from a single statement.
Columns and labels:
[1] = Effect of DMSO on HOCl-induced probe oxidation; format: physicochemical; conditions: 20 µM probe, 10 µM HOCl; for effect of DMSO on the fluorescence signal: 0.05% v/v (7 mM) DMSO
Description: DMSO is a solvent well tolerated by cells and it is often used to dissolve organic compounds intended for cell culture studies. Most chemical libraries for HTS applications use DMSO as the solvent. However, DMSO reacts directly with HOCl with a second-order rate constant of 350 ± 40 M^−1s^−1 and it has been shown that it may interfere with oxidation of boronate probes by HOCl[49]. Thus, the influence of DMSO additive on the observed fluorescence signal generated in the reaction between HOCl and the studied probes was evaluated. In this experiment, the incubation mixtures contained the chosen probe (20 µM), phosphate buffer (50 mM, pH 7.4), and DMSO in the amounts between 0–5% v/v (0–0.7 M). The reaction with HOCl was initiated by the bolus addition of 1 mM sodium hypochlorite to obtain the final HOCl concentration of 10 µM. In the case of NBD-TM that reacts rapidly and stoichiometrically (1:1 ratio) with HOCl[44] about 10 µM of NBD-TSO was formed (Fig. 6). […] The presence of 0.5% v/v (0.07 M) or higher concentrations of DMSO was sufficient to completely scavenge HOCl and block the fluorescence increase.
Incubation mixtures contained 20 µM of a probe, 10 µM HOCl, 0–5% v/v (0–0.7 M) DMSO, and 50 mM phosphate buffer (pH 7.4). (Representative result of three independent experiments is shown. Points represent means ± S.D.)

[2] = Detection limits of the probes for HOCl; conditions: 3.3σ/s from fluorescence titration with HOCl

Compound | effect of DMSO on the fluorescence signal [1] | LOD (detection limit for HOCl) [2] [nM] | effect of DMSO on HOCl-induced oxidation of the probe ([1]; 0.05% (7 mM) or 0.1% v/v (14 mM) DMSO)
Nc1ccc(Oc2ccc3c(-c4ccccc4C(=O)O)c4ccc(=O)cc-4oc3c2)cc1 [APF, 3’-(p-aminophenyl)-fluorescein] | strong inhibition of the fluorescence signal | 0.23 | 
O=[N+]([O-])c1ccc(N2CCSCC2)c2nonc12 [NBD-TM, 4-thiomorpholino-7-nitrobenz-2-oxa-1,3-diazole] |  | 99.65 | negligible effect
O=c1ccc2ccc(B(O)O)cc2o1 [CBA, coumarin boronic acid] | strong inhibition of the fluorescence signal | 1.46 | 
O=C(O)c1ccccc1-c1c2ccc(=O)cc-2oc2cc(B(O)O)ccc12 [FLBA, fluorescein boronic acid] | strong inhibition of the fluorescence signal | 6.11 | 
7-(p-aminophenyl)-coumarin [APC] | strong inhibition of the fluorescence signal | 1.85 | 

— publication PMC9166712, “Fluorescent probes for monitoring myeloperoxidase-derived hypochlorous acid: a comparative study” (Scientific Reports, 2022)
